# Measurements: patent publication US7405206B2, “Anti-inflammatory androstane derivatives” (Glaxo Group Limited, priority 2001, dated 2008)
# pEC50: −log10 of the molar value. Some results were stated once for a whole list of compounds, not compound by compound. For at least one compound, name, drawing or mass did not settle the structure.
# Test system: A549 cells stably transfected with a reporter gene containing the NF-κB responsive elements from the ELAM gene promoter coupled to sPAP
# Test: Functional in vitro assay of glucocorticoid agonist activity (NF-κB/ELAM-sPAP reporter, TNF stimulated)
# Type: cell-based
# Settings: compound 1 hour at 37° C., then TNF 10 ng/ml for 16 hours
# Method: Pharmacological activity was assessed in a functional in vitro assay of glucocorticoid agonist activity which is generally predictive of anti-inflammatory or anti-allergic activity in vivo.
# The functional assay was based on that described by K. P. Ray et al., Biochem J. (1997), 328, 707-715. A549 cells stably transfected with a reporter gene containing the NF-κB responsive elements from the ELAM gene promoter coupled to sPAP (secreted alkaline phosphatase) were treated with test compounds at appropriate doses for 1 hour at 37° C. The cells were then stimulated with tumour necrosis factor (TNF, 10 ng/ml) for 16 hours, at which time the amount of alkaline phosphatase produced is measured by a standard colourimetric assay. Dose response curves were constructed from which EC50 values were estimated.
row,SMILES,pEC50
1,"CC1CC2C3CC(F)C4=CC(=O)C=CC4(C)C3(F)C(O)CC2(C)C1(OC(=O)c1cccs1)C(=O)SC1CCOC1=O (stereo not drawn) [Example 4, 6α,9α-Difluoro-11β-hydroxy-16α-methyl-3-oxo-17α-[(2-thiophenylcarbonyl)oxy]-androsta-1,4-diene-17β-carbothioic acid S-(2-oxo-tetrahydro-furan-3S-yl)ester]",> 7.70
2,"Cc1ccoc1C(=O)OC1(C(=O)SC2CCOC2=O)C(C)CC2C3CC(F)C4=CC(=O)C=CC4(C)C3(F)C(O)CC21C (stereo not drawn) [Example 20, 6α,9α-Difluoro-11β-hydroxy-16α-methyl-17α-[(3-methylfuran-2-carbonyl)oxy]-3-oxo-androsta-1,4-diene-17β-carbothioic acid S-(2-oxo-tetrahydro-furan-3S-yl)ester]",> 7.70
3,"Cc1nnsc1C(=O)OC1(C(=O)SC2CCOC2=O)C(C)CC2C3CC(F)C4=CC(=O)C=CC4(C)C3(F)C(O)CC21C (stereo not drawn) [Example 13, 6α,9α-Difluoro-11β-hydroxy-16α-methyl-17α-[(4-methyl-1,2,3-thiadiazole-5-carbonyl)oxy]-3-oxo-androsta-1,4-diene-17β-carbothioic acid S-(2-oxo-tetrahydro-furan-3S-yl)ester]",> 7.70
4,"Cc1cc(C(=O)OC2(C(=O)SC3CCOC3=O)C(C)CC3C4CC(F)C5=CC(=O)C=CC5(C)C4(F)C(O)CC32C)n(C)n1 (stereo not drawn) [Example 24, 6α,9α-Difluoro-17α-[(1,3-dimethyl-1H-pyrazole-5-carbonyl)oxy]-11β-hydroxy-16α-methyl-3-oxo-androsta-1,4-diene-17β-carbothioic acid S-(2-oxo-tetrahydro-furan-3S-yl)ester]",> 7.70
5,"CC1CC2C3CC(F)C4=CC(=O)C=CC4(C)C3(F)C(O)CC2(C)C1(OC(=O)c1cccn1C)C(=O)SC1CCOC1=O (stereo not drawn) [Example 21, 6α,9α-Difluoro-11β-hydroxy-16α-methyl-17α-[(1-methyl-1H-pyrrole-2-carbonyl)oxy]-3-oxo-androsta-1,4-diene-17β-carbothioic acid S-(2-oxo-tetrahydro-furan-3S-yl)ester]",> 7.70
6,"CC1CC2C3CC(F)C4=CC(=O)C=CC4(C)C3(F)C(O)CC2(C)C1(OC(=O)c1sccc1Br)C(=O)SC1CCOC1=O (stereo not drawn) [Example 14, 17α-[(3-Bromothiophene-2-carbonyl)oxy]-6α,9α-difluoro-11β-hydroxy-16α-methyl-3-oxo-androsta-1,4-diene-17β-carbothioic acid S-(2-oxo-tetrahydro-furan-3S-yl)ester]",> 7.70
7,"CC1CC2C3CC(F)C4=CC(=O)C=CC4(C)C3(F)C(O)CC2(C)C1(OC(=O)c1ccsn1)C(=O)SC1CCOC1=O (stereo not drawn) [Example 29, 6α,9α-Difluoro-11β-hydroxy-17α-[(isothiazole-3-carbonyl)oxy]-16α-methyl-3-oxo-androsta-1,4-diene-17β-carbothioic acid S-(2-oxo-tetrahydro-furan-3S-yl) ester]",> 7.70
8,"CC1CC2C3CC(F)C4=CC(=O)C=CC4(C)C3(F)C(O)CC2(C)C1(OC(=O)c1ccon1)C(=O)SC1CCOC1=O (stereo not drawn) [Example 25, 6α,9α-Difluoro-11β-hydroxy-17α[(isoxazole-3-carbonyl)oxy]-16α-methyl-3-oxo-androsta-1,4-diene-17β-carbothioic acid S-(2-oxo-tetrahydro-furan-3S-yl) ester]",> 7.70
